In article PMC11412720:
These are yes or no findings as the source states them, for the method shown. Binding can be weak; no strength is given.

Biological target: T1, serum apolipoprotein A1 (ApoA1)-containing lipoprotein particles (HDL fraction of fetal calf serum) (bovine (endogenous in fetal calf serum)) (UniProt P15497)
T1 sequence: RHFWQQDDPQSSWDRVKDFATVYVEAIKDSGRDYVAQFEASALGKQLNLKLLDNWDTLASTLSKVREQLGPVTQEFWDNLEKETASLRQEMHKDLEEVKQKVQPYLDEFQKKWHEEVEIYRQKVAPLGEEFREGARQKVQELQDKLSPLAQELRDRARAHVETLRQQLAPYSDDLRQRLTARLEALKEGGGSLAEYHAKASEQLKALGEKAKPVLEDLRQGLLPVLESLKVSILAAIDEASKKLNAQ
Assay: SEC; conditioned medium with 10% FCS; Superdex200 10/300 GL, PBS, 4°C; fractions TCA-precipitated and immunoblotted (same stripped blot reprobed)

Substance	binding
Drosophila Hedgehog (Hh), soluble	binds
Drosophila Hh variant lacking its HS binding site (Hh^ΔHS)	binds
